Data taken from PubChem BioAssay AID1688 (National Center for Advancing Translational Sciences (NCATS), 2009).
In all, about 220,000 compounds went through this assay and about 2,400 (1.1%) were called active. The inconclusive results got no clear call from the source; some entries with a clear call stand among them for comparison. Calls follow the shape of the dose curve; as a rule, active = well fitted inhibition curve with a large enough effect; inconclusive = small, poorly fitted or top-dose-only effect, or effect the other way; inactive = no such curve, though single readings can be large or run the other way. Where the call is inconclusive, the potency comes from a doubtful curve fit.

Assay: qHTS Multiplex Assay to Identify Dual Action Probes in a Cell Model of Huntington: Aggregate Formation (GFP); also: nearly all actives have a fitted effect of over 60% in size
Conditions: PC12 HttQ103-GFP aggregates, Acumen cytometry, 40 h; activity change, negative = inhibition: at 46.1 µM (top of the series) unless noted
Procedure, shortened: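 Inducible Q103 Huntingtin exon 1–GFP PC12 line, 1500 cells/well in phenol red free DMEM with 5% equine and 5% calf serum. Tebufenozide 100 nM induced expression; compounds titrated; aggregates quantified by cytometry.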
% is scaled to controls: 0 for no effect and ±100 for the full control effect; potency is read from the fitted curve at half-maximal effect.

Row | Compound | Potency | activity change, negative = inhibition
1 | CN(C)c1nc(N(C)C)nc(N(C#N)CCOc2ccccc2)n1 | inconclusive: 35.5 µM [inhibitor, single point] | –
2 | CC(C)(C)NC(=O)CN(C(=O)Cn1nnc(-c2ccc(Cl)cc2)n1)C1CCN(Cc2ccccc2)CC1 | inconclusive: 25.1 µM [inhibitor, single point] | –
3 | Cc1ccc(Nc2nc3c(s2)CCC3)c(C)c1 | inactive | –
4 | COc1cccc(/C=N/NC(=O)c2cc3cc([N+](=O)[O-])ccc3s2)c1O | inconclusive: 2.82 µM [inhibitor, full curve] | –
5 | O=C1C(=C(O)c2ccccc2)C(=O)c2ccccc21 | inconclusive: 35.5 µM [inhibitor, single point] | –
6 | C#CC[N+](C)(C)CCCCCCCC | active: 8.91 µM | –
7 | O=S(=O)(Nc1nc2ccccc2nc1N1CCN(c2ccccc2)CC1)c1ccc(F)cc1 | inconclusive: 35.5 µM [inhibitor, single point] | –
8 | CCOc1ccc2[nH]c(=O)c(CN(Cc3cccs3)C(CC)c3nnnn3C(C)(C)CC)cc2c1 (stereo not drawn) | inconclusive: 35.5 µM [inhibitor, single point] | –
9 | Cc1cc(C)n(S(=O)(=O)c2ccc(Cl)c(Cl)c2Cl)n1 | inconclusive: 0.355 µM [inhibitor, full curve] | –
10 | O=[N+]([O-])c1cccc(-c2ccc(/C=N/Nc3nc(N4CCCCC4)nc(N4CCCCC4)n3)o2)c1 | inconclusive: 35.5 µM [inhibitor, single point] | –
11 | COc1ccccc1CNC(=O)CN(Cc1ccc(Cl)cc1)S(C)(=O)=O | – | inactive: 3.31% [at 9.22 µM]
12 | O=C(CCc1c[nH]c2ccccc12)NC1CC1 | inconclusive: 0.398 µM [activator, single point] | –
13 | N=c1c2c(n(Cc3cccc(Cl)c3)c3c1CCC3)CCCC2 | active: 10 µM | –
14 | CCOC(=O)c1ccc(NC(=O)CSC2=NC(=O)C(CC)C(=O)N2)cc1 (stereo not drawn) | inactive | –
15 | Cc1cc(C(c2nnnn2Cc2ccccc2)N2CCOCC2)c(C)n1-c1ccc2c(c1)OCO2 (stereo not drawn) | inactive | –
16 | O=S(=O)(c1cccc(NC(=S)N2CCN(c3ccc(F)cc3)CC2)c1)C(F)F | inconclusive: 35.5 µM [inhibitor, single point] | –
17 | Cc1nnsc1NC(=O)OCc1ccc(Cl)cc1Cl | inconclusive: 28.2 µM [inhibitor, single point] | –
18 | O=C1C2C3C=CC(C4CC34)C2C(=O)N1/N=C/c1ccc(-c2ccccc2[N+](=O)[O-])o1 (stereo not drawn) | active: 25.1 µM | –
19 | CCCc1ccc(Oc2cn[nH]c2-c2ccc(O)cc2O)cc1 | inconclusive: 35.5 µM [inhibitor, single point] | –
20 | CCN(CC)CCCNC(=O)c1ccc2c(Cl)c3c(nc2c1)CCCC3 | inconclusive: 25.1 µM [inhibitor, single point] | –
21 | C=C(C)CSc1nnc(-c2cccc(S(=O)(=O)N(C)C)c2)n1-c1cc(OC)ccc1OC | inconclusive: 0.708 µM [activator, single point] | –
22 | COc1cccc(-c2cc(C(F)(F)F)nc(NCc3ccco3)n2)c1 | inconclusive: 3.16 µM [inhibitor, partial curve, poor fit] | –

Quoted from the listing:
Under Potency, CCOC(=O)c1ccc(NC(=O)CSC2=NC(=O)C(CC)C(=O)N2)cc1 (stereo not drawn) is listed with inactive
Under Potency, O=C(CCc1c[nH]c2ccccc12)NC1CC1 is listed with inconclusive: 0.398 µM [activator, single point]

Additional results follow:

Row | Compound | Potency | activity change, negative = inhibition
23 | O=S1(=O)CCN2C=Nc3sc4c(c3C2=N1)CCCC4 | inactive | –
24 | COc1ccc(C(=O)Nc2nc(-c3ccc(S(=O)(=O)N4CCOCC4)cc3)cs2)cc1 | inconclusive: 14.1 µM [inhibitor, single point] | –
25 | COc1cc(-c2noc(CCCC(=O)NC3CCCCC3)n2)cc(OC)c1OC | inconclusive: 35.5 µM [activator, single point] | –
26 | COc1ccc2cc(CN(Cc3cccnc3)Cc3nnnn3Cc3ccccc3)c(=O)[nH]c2c1 | inactive | –
27 | COC(=O)c1sccc1NC(=O)C1CC(C)=C(C)CC1C(=O)O (stereo not drawn) | – | inactive: 5.37% [at 9.22 µM]
28 | O=C1CC(c2ccccc2)CC(O)=C1C=Nc1cccc(Cl)c1 (stereo not drawn) | inconclusive: 15.8 µM [inhibitor, single point] | –
29 | CCOc1ccccc1C(=O)N1c2ccccc2Sc2ccccc21 | active: 15.8 µM | –
30 | COc1ccc(O)c(C(=O)c2cnn(C(=O)c3cccc(S(=O)(=O)N4CCOCC4)c3)c2)c1 | inconclusive: 8.91 µM [inhibitor, partial curve] | –
31 | CCc1c(C)nc(SCCOc2ccc(OC(C)C)cc2)[nH]c1=O | inconclusive: 17.8 µM [inhibitor, single point] | –
32 | O=C1CNCc2[nH]c3ccccc3c2N1c1ccccc1 | inconclusive: 0.891 µM [inhibitor, single point] | –
33 | Cn1c(=O)c2cn(-c3cccc4ccccc34)cc2n(C)c1=O | inconclusive: 0.794 µM [inhibitor, single point] | –
34 | Fc1ccc(NC(=S)NC23CN4CN(CN(C4)C2)C3)cc1 | inconclusive: 1.26 µM [inhibitor, single point] | –
35 | CCN(CC)CCCN(c1ccccc1)C1Cc2ccccc2C1 | inconclusive: 12.6 µM [inhibitor, full curve, poor fit] | –
36 | COC(=O)N/N=C(\C)c1ccc2ccccc2c1OC(F)F | inconclusive: 3.55 µM [activator, single point] | –
37 | CCc1ccc(-c2nc(CN3CCC(C(=O)NCc4ccccc4OC)CC3)c(C)o2)cc1 | inconclusive: 35.5 µM [inhibitor, single point] | –
38 | O=C(Nc1nc(-c2ccc3ccccc3c2)cs1)C1CCN(S(=O)(=O)c2cccs2)CC1 | inactive | –
39 | CCc1ccc(NS(=O)(=O)c2ccc3[nH]cc(C(=O)N(C)Cc4ccco4)c(=O)c3c2)cc1 | active: 0.1 µM | –
40 | CC(C)(C)NC(=O)c1ccc2c(c1)C1C3CCC(C3)C1C(c1ccccc1)N2 (stereo not drawn) | inconclusive: 35.5 µM [inhibitor, single point] | –
41 | COc1ccc(NC(=O)N2CCCC(c3nc(-c4ccc(C(C)C)cc4)no3)C2)cc1 (stereo not drawn) | inconclusive: 35.5 µM [inhibitor, single point] | –
42 | O=C(Cn1cnc2c(nnn2-c2ccccc2)c1=O)N1CCCc2ccccc21 | inconclusive: 0.794 µM [inhibitor, single point] | –
43 | COc1ccc(-n2nc(C(=O)NCC(=O)NCc3ccco3)c3ccccc3c2=O)cc1Cl | inactive | –

Rewritten with tabs: entries from further up.
Row	Compound	Potency	activity change, negative = inhibition
17	Cc1nnsc1NC(=O)OCc1ccc(Cl)cc1Cl	inconclusive: 28.2 µM [inhibitor, single point]	–
18	O=C1C2C3C=CC(C4CC34)C2C(=O)N1/N=C/c1ccc(-c2ccccc2[N+](=O)[O-])o1 (stereo not drawn)	active: 25.1 µM	–
